Consider two sequences from paper PMC11724288.

Series [1] concerns TFIIICΔtail (τ138, τ131, τ95Δtail, τ91, τ60, τ55) (Saccharomyces cerevisiae). The series is described as follows: cryo-EM. The conditions noted are these: datasets 2-5, some τA redistribution to pseudo-A-box; Buffer FB: 20 mM HEPES pH 7.5, 150 mM KCl, 2 mM MgCl2, 5 mM DTT; filter binding 1 h at 4 C; footprint 30 min RT; recombinant protein.
Series [2] shares this test system. The experiment in a line: EMSA. The conditions noted are these: 100-900 nM protein, poly-dI/dC; Buffer FB: 20 mM HEPES pH 7.5, 150 mM KCl, 2 mM MgCl2, 5 mM DTT; filter binding 1 h at 4 C; EMSA 20 min RT with 1 ug poly-dI/dC, gel at 4 C; footprint 30 min RT; recombinant protein; label: 32P.

The exact form of at least one protein or probe is not confirmed. At least one verdict rests on a figure or table, not on a statement of the authors.

On to “GTATTACTCGAGCCCGTATATAAACAGTTCTCCATTGAAAAGTCGCCATCTTAGTATAGTGGTTAGTACACATCGTTGTGGCCGATGAAACCCTGGTTCGATTCTAGGAGATGGCATTTT (double strand) [120-bp tRNAHis with TATA-like sequence]”, for which the binding result in series [1] is “binds”.

As to “TCCATTGAAAAGTCGCCATCTTAGTATAGTGGTTAGTACACATCGTTGTGGCCGATGAAACCCTGGTTCGATTCTAGGAGATGGCATTTT (double strand) [A/B (EMSA)]”, the binding result in series [2] is “binds”.
